The target of this experiment is T1, GST-Ufd2 (S. cerevisiae) (UniProt P54860).
T1 sequence: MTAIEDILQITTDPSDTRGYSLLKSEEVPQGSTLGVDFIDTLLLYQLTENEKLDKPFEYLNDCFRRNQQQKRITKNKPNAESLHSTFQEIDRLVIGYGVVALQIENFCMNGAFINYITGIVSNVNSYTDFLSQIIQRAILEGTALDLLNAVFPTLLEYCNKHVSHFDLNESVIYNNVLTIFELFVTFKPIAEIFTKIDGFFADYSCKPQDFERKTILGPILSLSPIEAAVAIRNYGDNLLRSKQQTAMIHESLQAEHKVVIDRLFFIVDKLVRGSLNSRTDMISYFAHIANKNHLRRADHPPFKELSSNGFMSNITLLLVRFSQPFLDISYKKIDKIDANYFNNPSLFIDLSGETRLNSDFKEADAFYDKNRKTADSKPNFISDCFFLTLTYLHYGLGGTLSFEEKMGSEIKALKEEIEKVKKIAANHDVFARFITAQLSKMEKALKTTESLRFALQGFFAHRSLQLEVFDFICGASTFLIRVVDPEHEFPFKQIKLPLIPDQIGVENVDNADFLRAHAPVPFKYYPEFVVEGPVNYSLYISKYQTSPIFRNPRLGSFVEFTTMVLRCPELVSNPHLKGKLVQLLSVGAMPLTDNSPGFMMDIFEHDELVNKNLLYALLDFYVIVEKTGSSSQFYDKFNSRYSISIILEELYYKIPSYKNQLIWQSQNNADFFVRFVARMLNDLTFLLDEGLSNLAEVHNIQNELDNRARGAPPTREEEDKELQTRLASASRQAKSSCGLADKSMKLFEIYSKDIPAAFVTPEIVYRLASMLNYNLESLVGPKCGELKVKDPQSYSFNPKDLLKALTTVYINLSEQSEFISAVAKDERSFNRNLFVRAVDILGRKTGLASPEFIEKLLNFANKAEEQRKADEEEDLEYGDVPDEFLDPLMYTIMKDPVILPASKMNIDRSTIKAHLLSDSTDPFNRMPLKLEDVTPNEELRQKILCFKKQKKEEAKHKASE
The experiment is described as follows: pull-down; glutathione sepharose saturated with GST-Ufd2; purified Rad23 proteins added in 50 mM HEPES pH 7.5, 150 mM NaCl, 5 mM EDTA, 2% Triton X-100, 0.2 mg/ml BSA; 4°C 60 min; wash PBS with 0.1% Tween-20; Western blot for Rad23; both purified. (In general: A western blot detects proteins with antibodies after separation by electrophoresis.)

Results are given in words; binding and its absence hold for the method and conditions named. Some results given as binding are weak or reduced against the parent protein; the word gives no strength. Sequences can lack the tags named with a protein.

B1: wild-type Rad23 (protein, UniProt P32628 1-398)
chain: MVSLTFKNFKKEKVPLDLEPSNTILETKTKLAQSISCEESQIKLIYSGKVLQDSKTVSECGLKDGDQVVFMVSQKKSTKTKVTEPPIAPESATTPGRENSTEASPSTDASAAPAATAPEGSQPQEEQTATTERTESASTPGFVVGTERNETIERIMEMGYQREEVERALRAAFNNPDRAVEYLLMGIPENLRQPEPQQQTAAAAEQPSTAATTAEQPAEDDLFAQAAQGGNASSGALGTTGGATDAAQGGPPGSIGLTVEDLLSLRQVVSGNPEALAPLLENISARYPQLREHIMANPEVFVSMLLEAVGDNMQDVMEGADDMVEGEDIEVTGEAAAAGLGQGEGEGSFQVDYTPEDDQAISRLCELGFERDLVIQVYFACDKNEEAAANILFSDHAD
modifications: 32P-phosphate at the N-terminal HMK site (native gel assay only)
As for B1, the binding result is listed as “binds”.

B2: Rad23 K43E (protein, UniProt P32628 1-398)
chain: MVSLTFKNFKKEKVPLDLEPSNTILETKTKLAQSISCEESQIELIYSGKVLQDSKTVSECGLKDGDQVVFMVSQKKSTKTKVTEPPIAPESATTPGRENSTEASPSTDASAAPAATAPEGSQPQEEQTATTERTESASTPGFVVGTERNETIERIMEMGYQREEVERALRAAFNNPDRAVEYLLMGIPENLRQPEPQQQTAAAAEQPSTAATTAEQPAEDDLFAQAAQGGNASSGALGTTGGATDAAQGGPPGSIGLTVEDLLSLRQVVSGNPEALAPLLENISARYPQLREHIMANPEVFVSMLLEAVGDNMQDVMEGADDMVEGEDIEVTGEAAAAGLGQGEGEGSFQVDYTPEDDQAISRLCELGFERDLVIQVYFACDKNEEAAANILFSDHAD
modifications: 32P-phosphate at the N-terminal HMK site (native gel assay only)
In the case of B2, the binding result is recorded as “binds”.

B3: Rad23 S73E (protein, UniProt P32628 1-398)
chain: MVSLTFKNFKKEKVPLDLEPSNTILETKTKLAQSISCEESQIKLIYSGKVLQDSKTVSECGLKDGDQVVFMVEQKKSTKTKVTEPPIAPESATTPGRENSTEASPSTDASAAPAATAPEGSQPQEEQTATTERTESASTPGFVVGTERNETIERIMEMGYQREEVERALRAAFNNPDRAVEYLLMGIPENLRQPEPQQQTAAAAEQPSTAATTAEQPAEDDLFAQAAQGGNASSGALGTTGGATDAAQGGPPGSIGLTVEDLLSLRQVVSGNPEALAPLLENISARYPQLREHIMANPEVFVSMLLEAVGDNMQDVMEGADDMVEGEDIEVTGEAAAAGLGQGEGEGSFQVDYTPEDDQAISRLCELGFERDLVIQVYFACDKNEEAAANILFSDHAD
modifications: 32P-phosphate at the N-terminal HMK site (native gel assay only)
Take B3: the binding entry was “binds”.

(Values after publication PMC2267792.)
